From patent US20080171849 (published 2008)

Experiment: general procedure: Fmoc solid-phase peptide synthesis; 2-chlorotrityl polystyrene
Details: whole synthesis

Ac-Nle-cyclo(Asp-His-D-Phe-Arg-Trp-Lys)
crude yield: ˜60%
